# Laboratory results as given in publication PMC7862700.
# The list shows a part of the results, in another mix than the full data. At the low end of the ranking the order means little.
# Biological target: T1, ELK3 (UniProt P41970)
# T1 sequence: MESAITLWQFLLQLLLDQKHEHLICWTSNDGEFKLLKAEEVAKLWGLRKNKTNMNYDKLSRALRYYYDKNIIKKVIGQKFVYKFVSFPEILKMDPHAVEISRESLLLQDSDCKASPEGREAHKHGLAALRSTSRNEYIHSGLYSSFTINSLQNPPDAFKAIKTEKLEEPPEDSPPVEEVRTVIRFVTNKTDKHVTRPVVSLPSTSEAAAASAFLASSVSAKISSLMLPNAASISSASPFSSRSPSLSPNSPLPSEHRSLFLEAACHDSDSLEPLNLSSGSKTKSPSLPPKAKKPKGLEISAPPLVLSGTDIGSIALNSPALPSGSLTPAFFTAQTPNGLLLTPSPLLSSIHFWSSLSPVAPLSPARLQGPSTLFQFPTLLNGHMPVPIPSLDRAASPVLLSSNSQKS
# Assay: DAPPL (digital affinity profiling via proximity ligation, sequencing)
# Details: 10 mM Tris-HCl pH 7.5, 50 mM NaCl, 1 mM DTT, 4% glycerol, room temperature, 30 min; GST-TFs on glutathione beads, 16-mer random dsDNA library, 0.1% …; high values mean tight binding; double strand, one strand shown; scale: fold enrichment (6-mer frequency, TF over GST control)
row,Sequence,binding signal
1,TCGCCT,1.15
2,CCTGAT,1.45
3,TATGGA,1.12
4,GTATGC,1.13
5,TTCCCT,1.8
6,AAGAAT,1.1
7,TTCACT,1.37
8,GCGACT,1.25
9,TTTACG,1.27
10,TCTTGA,1.29
11,GATATA,1.17
12,CTGTTA,1.32
13,AATCAT,0.998
14,TAGTCT,0.968
15,TATTCG,0.974
16,CCGATT,1.29
17,CGAAAG,0.963
18,CTGCCA,1.08
19,ATGGTA,1.36
20,ATGTGT,1.06

# In another format: entries from further up
row	Sequence	binding signal
5	TTCCCT	1.8
6	AAGAAT	1.1
7	TTCACT	1.37

# Going on with the list.

row,Sequence,binding signal
1,GGCTAG,1
2,GCTCTG,0.973
3,CCAATG,1.08
4,TTAAAC,1.31
5,CGACCG,1.21
6,TTCTTC,2.25
7,ATTGCG,1.27
8,CTGCCG,1.27
9,CCCCCG,1.07
10,AATCCC,1.13
11,TAAAAC,1.19
12,ACGAAC,1.13
13,GTTCTT,1.35
14,CGAATA,1.21
15,ATCTGT,1.07
16,AATGCT,1.12
17,GTACAT,1.44
18,TACGAT,1.09
19,ATTCCG,1.78
20,CCCATT,1.41
